Data taken from patent US20240117042A1.
Results are given in words; binding and its absence hold for the method and conditions named. Some results given as binding are weak or reduced against the parent protein; the word gives no strength.

Protein sequences, listed by entry. Tags and fused reporters are not part of them. Residues count along the entry.
UniProt P43630, residues 22-455: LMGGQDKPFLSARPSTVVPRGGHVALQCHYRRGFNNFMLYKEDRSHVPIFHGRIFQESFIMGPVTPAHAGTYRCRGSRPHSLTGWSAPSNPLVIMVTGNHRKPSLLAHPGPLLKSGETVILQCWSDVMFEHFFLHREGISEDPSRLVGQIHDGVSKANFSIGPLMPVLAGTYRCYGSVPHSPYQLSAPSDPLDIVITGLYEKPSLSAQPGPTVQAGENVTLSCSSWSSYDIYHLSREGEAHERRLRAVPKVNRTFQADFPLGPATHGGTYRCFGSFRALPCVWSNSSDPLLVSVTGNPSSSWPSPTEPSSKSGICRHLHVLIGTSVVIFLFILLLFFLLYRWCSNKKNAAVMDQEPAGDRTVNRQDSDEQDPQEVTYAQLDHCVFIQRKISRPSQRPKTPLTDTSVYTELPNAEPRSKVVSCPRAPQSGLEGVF

Tests used:
[1] = molecular target: human KIR3DL2 on cells (human) (UniProt P43630); test: IHC at 5 µg/mL on FFPE PTCL samples, Leica Bond RX
[2] = molecular target: human KIR3DL2 on cells (human) (UniProt P43630); test: IHC on FFPE CHO-mb-HuKIR3DL2 cell pellets, several antibody concentrations, optical density by HistoQuantif (FIG. 6)
[3] = molecular target: human KIR3DL2 on cells (human) (UniProt P43630); test: IHC on FFPE HuT 78 cell pellets
[4] = molecular target: human KIR3DL2 on cells (human) (UniProt P43630); test: IHC on FFPE CTCL biopsies, percent KIR3DL2+ cells estimated by a pathologist, against 12B11 on matched frozen biopsies
[5] = molecular target: human KIR3DL2 on cells (human) (UniProt P43630); test: IHC on FFPE Mycosis Fungoides (CTCL) tumor samples
[6] = molecular target: human KIR3DL2 on cells (human) (UniProt P43630); test: IHC at 5 µg/mL on CHO/CHO-mb-HuKIR3DL2 mixed FFPE cell pellets, Leica Bond RX
[7] = molecular target: human KIR3DL2 on cells (human) (UniProt P43630); test: IHC on FFPE PTCL tumor samples
[8] = molecular target: human KIR3DL2 on cells (human) (UniProt P43630); test: IHC, rabbit IgG at 10, 7.5, 5 and 2.5 µg/mL on FFPE cell pellets, Ventana Benchmark Ultra
[9] = molecular target: human KIR3DL2 on cells (human) (UniProt P43630); test: IHC at 5 µg/mL on FFPE CTCL samples, Leica Bond RX
[10] = molecular target: human KIR3DL2 on cells (human) (UniProt P43630); test: IHC on FFPE PTCL biopsies
[11] = molecular target: human KIR3DL2 on cells (human) (UniProt P43630); test: IHC at 5 µg/mL on Raji/HuT 78 mixed FFPE cell pellets, Leica Bond RX

Measured: binding

B1: P3-R4D-H5 rabbit IgG (antibody, V domains shown)
VH: QSLEESGGRLVTPGTPLTLTCTVSGFSLSTYAMSWVRQAPGKGLEWIGIIGASGNTWYASWAKGRFTISKTSTTVGLKITSPTTEDTATYFCARFWAGYPSNAAATVSGMDPWGPGTLVTVSS
VL: ELVLTQSPSLSASLDTTARLACTLSTGYSVGSYGIGWYQQVPGRPPRYLLTYHTEEIKHQGSGVPTRFSGSKDTSENTAVLSISGLQPEDEADYYCATAHGSGSSFHVVFGGGTQLTVT
binds: all assays above
